{"source": "patent US20180207191A1", "about": "“HUMAN CANCER MICRO-RNA EXPRESSION PROFILES PREDICTIVE OF CHEMO-RESPONSE” (H. LEE MOFFITT CANCER CENTER AND RESEARCH INSTITUTE, INC., priority 2010, published 2018)", "assay_in_all_cases": "Growth inhibition assay (CellTiter-Glo), paclitaxel/topotecan, transfected cells", "format_in_all_cases": "cell-based, human", "key": {"[1]": {"test_system": "ovarian cancer cell line PA1"}, "[2]": {"test_system": "ovarian cancer cell line ChicisR"}, "[3]": {"test_system": "breast cancer cell line MCF-7"}, "[4]": {"test_system": "ovarian cancer cell line OVCAR4"}, "[5]": {"test_system": "breast cancer cell line Hs578T"}, "[6]": {"test_system": "ovarian cancer cell line SKOV4"}}, "note": "The name of at least one read-out is uncertain."}
{"smiles": "CC[C@@]1(O)C(=O)OCc2c1cc1n(c2=O)Cc2cc3c(CN(C)C)c(O)ccc3nc2-1", "note": "[Topotecan]", "values": [{"measurement": "Cell lines response to Topotecan/Paclitaxel (based on IC50)", "setting": "[1]", "result": "resis"}, {"measurement": "Cell lines response to Topotecan/Paclitaxel (based on IC50)", "setting": "[2]", "result": "sensi"}, {"measurement": "Cell lines response to Topotecan/Paclitaxel (based on IC50)", "setting": "[3]", "result": "resis"}, {"measurement": "Cell lines response to Topotecan/Paclitaxel (based on IC50)", "setting": "[4]", "result": "resis"}, {"measurement": "Cell lines response to Topotecan/Paclitaxel (based on IC50)", "setting": "[5]", "result": "resis"}, {"measurement": "Cell lines response to Topotecan/Paclitaxel (based on IC50)", "setting": "[6]", "result": "sensi"}]}
